Some of the results follow.
System: T1, CTL2-GFP (C. trachomatis L2/434/Bu, GFP-expressing)
T1 construct: L2/434/Bu, GFP-expressing
Parameters: species or system HeLa; Intracellular C. trachomatis growth in HeLa cells, bulk GFP fluorescence relative to DMSO
Conditions: bulk GFP, single well; 28.5 h, 10 µM; inhibitor

Structure (SMILES) | % of control remaining
Cc1ccc(Cl)cc1NC(=O)CC1NCCNC1=O (stereo not shown) [CBK267246] | 125.733%
Cn1c(COc2ccccc2Cl)nnc1SCC(=O)N1c2ccccc2Sc2ccccc21 [CBK266001] | 154.311%
Nc1ccc2c(-c3ccc(OC(F)(F)F)cc3)ccnc2n1 [CBK067649] | 100.278%
CCCn1c(CN2CCOCC2)nc2c1c(=O)n(C)c(=O)n2C [CBK305911] | 90.3276%
COCC(=O)N1CCc2sccc2C1c1ccc(NCc2ccc(F)cc2F)cc1 (stereo not shown) [CBK286460] | 121.471%
Cc1cccc2c3c([nH]c12)C1(CCCN(CCc2ccc([N+](=O)[O-])cc2)C1)NCC3 (stereo not shown) [CBK039558] | 91.3118%
CCN(CC)CCCNC(=O)N(CCC#N)C1CCCCC1 [CBK156377] | 83.8579%
CC1CCc2c(sc(NC(=O)c3cccs3)c2C(=O)N2CCOCC2)C1 (stereo not shown) [CBK307101] | 116.677%
O=C(Nc1ccccc1Oc1ccc(F)cc1)c1ccc(Cn2cncn2)cc1 [CBK285587] | 82.006%
Nc1cccc(-c2nc(-c3cccnc3)cnc2N)c1 [CBK063906] | 113.019%
O=C(CSc1ccc(-c2ccncc2)nn1)Nc1ccc(F)cc1 [CBK287297] | 118.603%
COc1ccc(C2=NN(c3ccc([N+](=O)[O-])cc3)C(=O)/C2=C\NCCN2CCOCC2)cc1 [CBK264563] | 127.43%
COc1ccccc1NC(=O)c1c(NC(=O)Cc2ccccc2)sc2c1CCC(C(C)(C)C)C2 (stereo not shown) [CBK264102] | 99.3213%
COCCNC(=O)C(C)SCc1ccccc1 (stereo not shown) [CBK028889] | 105.255%
CCN(CC)C(=O)c1[nH]c2ccccc2c1NS(=O)(=O)c1ccc(C(F)(F)F)cc1[N+](=O)[O-] [CBK050109] | 102.234%
O=S(=O)(c1ccc2c(c1)nc1n2CCC1)N1CCOCC1 [CBK019200] | 145.731%
Cc1ccc(NS(=O)(=O)c2cc(C(=O)N3CCN(Cc4ccc5c(c4)OCO5)CC3)ccc2C)cc1 [CBK268521] | 82.6557%
c1cnc2c(c1)cc([C@H]1CCCO1)n2CCN1CCCC1 [CBK282289] | 119.494%
Cn1cncc1C(=O)N1CCc2ccccc21 [CBK200412] | 102.531%
Cc1c(OCc2ccccc2)ccc2c1OC1(CCN(C(=O)c3ccsc3)CC1)CC2=O [CBK156445] | 82.587%
c1cc2[nH]ccc2c(N2CCNCC2)n1 [CBK051673C] | 111.494%
Cc1ccccc1Sc1cccc(C(F)(F)F)n1 [CBK115243] | 136.37%
Cc1c(S(=O)(=O)N2CCC(N)C2)sc2ccc(Cl)cc12 (stereo not shown) [CBK164970] | 77.6249%
Cc1ccc2c(c1)CC(=O)NC21CCN(CCc2noc3ccccc23)CC1 [CBK081072] | 124.577%
O=C(c1ccc(F)cc1F)N1CCC(O)(c2ccccn2)CC1 [CBK283671] | 87.5664%
CCCc1ccc(S(=O)(=O)N2CCOC(c3cnn(CC)c3)C2)cc1 (stereo not shown) [CBK306169] | 120.761%

Structural class: the entries above containing two or more sulfur atoms
Structure (SMILES) | % of control remaining
Cn1c(COc2ccccc2Cl)nnc1SCC(=O)N1c2ccccc2Sc2ccccc21 [CBK266001] | 154.311%
CC1CCc2c(sc(NC(=O)c3cccs3)c2C(=O)N2CCOCC2)C1 (stereo not shown) [CBK307101] | 116.677%
Cc1c(S(=O)(=O)N2CCC(N)C2)sc2ccc(Cl)cc12 (stereo not shown) [CBK164970] | 77.6249%

Remaining list, next part

Structure (SMILES) | % of control remaining
Cc1c(Cl)cccc1NC(=O)CSc1nccn1C [CBK270297] | 134.412%
Cc1sc2nc(C3CC3)n(C3CCNCC3)c(=O)c2c1C [CBK284228] | 141.697%
FC(F)(F)c1ccnc(OC2CCNCC2)n1 [CBK113294] | 142.671%
Cc1nn(-c2ccccc2)c(Cl)c1CN1C(=O)NC2(CCCC2)C1=O [CBK305070] | 104.616%
O=C(c1cccnc1)N1CCN(c2ncccn2)CC1 [CBK144516] | 111.677%
COc1ccc2[nH]cc(CCNC(=O)c3ccc(Cl)c(Cl)c3)c2c1 [CBK115870] | 14.1597%
Cc1cccc(-c2ncc(NC(=O)c3cccc(N(C)C)c3)nc2-c2ccco2)c1 [CBK036654] | 130.543%
CC(Oc1ccc(S(=O)(=O)N2CCN(C)CC2)cc1)C(=O)NC1CCCCC1 (stereo not shown) [CBK269943] | 86.8298%
Cc1csc2c(N3CCC(NCCc4ccnn4C)CC3)ncnc12 [CBK307515] | 92.1851%
COc1ccc(C(NC(=O)C2CCN(CCOc3ccc4ccccc4c3)CC2)c2ccccc2C)cn1 (stereo not shown) [CBK148792] | 24.5908%
CCCCN(C)c1c(C)nc2c(Oc3nc4ccccc4s3)cccn12 [CBK147192] | 75.5332%
Cn1nc(C2CCN(C(=O)c3ccccc3F)CC2)c2cccnc21 [CBK285019] | 70.648%
CCCn1ccnc1CNc1nc(C)nc2c1c(C)nn2C [CBK307459] | 90.7308%
CN(C)C(=O)CN1C(=O)[C@H]2CCCN2C(=O)c2ccccc21 [CBK282854] | 118.128%
CSc1ccc(-c2cnc3nc(N)ccc3c2)cc1 [CBK081169] | 122.636%
Oc1cc2cccnc2nc1-c1ccc(OCc2ccccc2)c(F)c1 [CBK073708] | 100%
Cc1ncsc1CCOc1ncccc1C(F)(F)F [CBK115781] | 115.551%
Cc1ccccc1-c1nnc2n1CCCCC2 [CBK200076A] | 111.139%
COc1cc(CNc2cncc(-c3ccc(N)cc3)n2)cc(OC)c1OC [CBK065483] | 100.839%
CCCNC(=O)Cn1cnc2sc(C)c(C)c2c1=O [CBK305863] | 142.47%
Nc1ncc(-c2ccoc2)nc1NCc1ccncc1 [CBK063656] | 158.559%
CCOc1cc(/C=C2\SC(=N)NC2=O)ccc1OCc1ccc(Br)cc1 [CBK263813] | 129.998%
COc1cccc(C(=O)Nc2nnc(-c3ccco3)o2)c1 [CBK287421] | 106.804%
Cc1sc(-c2c(F)cccc2F)nc1O [CBK067729] | 55.0398%
C[C@@H]1CN(Cc2ccccc2)C[C@H](C)N1 [CBK001569] | 124.832%
CCOc1ccccc1C(=O)N1CCC(Cc2ccccc2-c2ccccc2)(C(N)=O)CC1 [CBK285910] | 115.913%

— article PMC12040169 (PLOS Biology, 2025)
